In PubChem BioAssay AID2685 (National Center for Advancing Translational Sciences (NCATS), 2010):
This is one part of the list. These are further read-outs of the screen, such as a control signal, another cell line or another target. No call is given for them. Most of these compounds were active or inconclusive in the main read-out, so they are no random draw. The note in brackets gives the kind of curve behind each potency; many fits are weak.

Test: qHTS Assay for Lipid Storage Modulators in Drosophila S3 Cells;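 on cell number change: cells counted by Cell Tracker Red CMTPX staining in the red channel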
Conditions: BODIPY lipid droplet fluorescence, 18-24 h; for cell number change: measured here: cell count max response, cells fed with added oleic acid
Summary of the method: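 Drosophila S3 cells got compounds at several concentrations plus oleic acid (400 uM solution). Laser-scanning cytometry with 488 nm excitation read lipid droplets at 500-530 nm and cells at 575-640 nm. Percent activity was relative to 20 uM Triacsin C.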

[1] = measured here: cell number channel AC50, cells fed with added oleic acid
[2] = measured here: lipid fluorescence (Fed channel) AC50, cells fed with added oleic acid

**Q.** Which results are given for `Cc1ccc(N(C)C(=O)n2cnc3ccccc32)cc1`?
**A.** cell number change: 121%; AC50 [1]: 6.51 µM [falling, single point]; AC50 [2]: 4.61 µM [falling, single point]

**Q.** Which results are given for `CC(C)(C)c1csc(NC(=O)c2ccc(Br)o2)n1`?
**A.** cell number change: -40.4%; AC50 [1]: 8.2 µM [falling, partial curve]; AC50 [2]: 6.51 µM [falling, full curve]

**Q.** What does the source list for `CCOC(=O)c1cc(-c2ccccc2)sc1NC(=O)C(C)Sc1nnc(N)s1` (stereo not drawn)?
**A.** cell number change: -35.6%; AC50 [1]: 0.164 µM [falling, full curve, poor fit]

**Q.** With `Cn1c(Cn2cnc3ccccc32)nc2ccccc21` as the compound, how does the cell number change read?
**A.** -39.8%

**Q.** What about the AC50 [1] of the same compound?
**A.** 32.6 µM [falling, single point]

**Q.** With `O=C(NCCN1CCOCC1)c1cc(-c2ccc(Cl)s2)nc2ccccc12` as the compound, how does the cell number change read?
**A.** 20%

**Q.** Which cell number change does the source give for `O=C(NCCc1ccccc1)/C(=C\c1ccc([N+](=O)[O-])cc1)NC(=O)c1ccccc1` here?
**A.** -23.3%

**Q.** And the AC50 [2]?
**A.** 7.31 µM [falling, partial curve]

**Q.** What does the source list for `Cc1nn(C)c(=O)n1-c1ccc(OCc2ccccc2)cc1`?
**A.** cell number change: 63%; AC50 [1]: 16.4 µM [rising, single point]; AC50 [2]: 16.4 µM [rising, partial curve]

**Q.** For `CC1=CCC2C(=O)N(c3ccc(OC(=O)c4ccco4)cc3)C(=O)C2C1` (stereo not drawn), which cell number change is on record?
**A.** 2.85%

**Q.** What about the AC50 [2] of the same compound?
**A.** 0.00517 µM [falling, full curve, poor fit]

**Q.** With `CCn1c(SCC(=O)c2c(N)n(C3CC3)c(=O)[nH]c2=O)nnc1-c1ccoc1C` as the compound, how does the cell number change read?
**A.** 11.8%

**Q.** What about the AC50 [2] of the same compound?
**A.** 1.16 µM [rising, full curve, poor fit]

**Q.** Which results are given for `CCOCN(C(=O)Cn1c(CO)nc2ccccc21)c1c(C)cccc1CC`?
**A.** cell number change: 1.82%; AC50 [2]: 0.731 µM [rising, single point]

**Q.** With `O=C(NCCCn1ccnc1)c1cc2c(s1)CCCCC2` as the compound, how does the cell number change read?
**A.** 14.8%

**Q.** What about the AC50 [2] of the same compound?
**A.** 6.51 µM [rising, single point]

**Q.** With `O=C1C2CC=CCC2C(=O)N1CC(=O)N(Cc1ccccc1)C1CCS(=O)(=O)C1` (stereo not drawn) as the compound, how does the cell number change read?
**A.** -6.82%

**Q.** And the AC50 [2]?
**A.** 1.03 µM [falling, full curve, poor fit]

**Q.** With `Cc1cc(C)c(C(=O)N(C)C2CCCN(Cc3ccccc3F)C2)o1` (stereo not drawn) as the compound, how does the cell number change read?
**A.** 7.65%

**Q.** Which cell number change does the source give for `COc1ccc(-c2cn(CCC(=O)O)c(-c3ccncc3)n2)cc1` here?
**A.** 5.94%

**Q.** What about the AC50 [2] of the same compound?
**A.** 0.00461 µM [rising, full curve, poor fit]

**Q.** What does the source list for `Cc1cc2nnc(SCC(=O)NCC(c3ccccc3)N(C)C)n2c2ccccc12` (stereo not drawn)?
**A.** cell number change: 18.2%; AC50 [2]: 29.1 µM [falling, single point]

**Q.** Which cell number change does the source give for `COC(=O)C1C(=O)C=C(Nc2ccc(F)cc2)CC1c1ccc(OC)cc1` (stereo not drawn) here?
**A.** 7.45%

**Q.** And the AC50 [2]?
**A.** 1.46 µM [rising, full curve, poor fit]
